# Reference: publication PMC5996148
# Chains of the proteins cited; added tags and fusions are not shown.
# UniProt Q8TDD1, whole entry: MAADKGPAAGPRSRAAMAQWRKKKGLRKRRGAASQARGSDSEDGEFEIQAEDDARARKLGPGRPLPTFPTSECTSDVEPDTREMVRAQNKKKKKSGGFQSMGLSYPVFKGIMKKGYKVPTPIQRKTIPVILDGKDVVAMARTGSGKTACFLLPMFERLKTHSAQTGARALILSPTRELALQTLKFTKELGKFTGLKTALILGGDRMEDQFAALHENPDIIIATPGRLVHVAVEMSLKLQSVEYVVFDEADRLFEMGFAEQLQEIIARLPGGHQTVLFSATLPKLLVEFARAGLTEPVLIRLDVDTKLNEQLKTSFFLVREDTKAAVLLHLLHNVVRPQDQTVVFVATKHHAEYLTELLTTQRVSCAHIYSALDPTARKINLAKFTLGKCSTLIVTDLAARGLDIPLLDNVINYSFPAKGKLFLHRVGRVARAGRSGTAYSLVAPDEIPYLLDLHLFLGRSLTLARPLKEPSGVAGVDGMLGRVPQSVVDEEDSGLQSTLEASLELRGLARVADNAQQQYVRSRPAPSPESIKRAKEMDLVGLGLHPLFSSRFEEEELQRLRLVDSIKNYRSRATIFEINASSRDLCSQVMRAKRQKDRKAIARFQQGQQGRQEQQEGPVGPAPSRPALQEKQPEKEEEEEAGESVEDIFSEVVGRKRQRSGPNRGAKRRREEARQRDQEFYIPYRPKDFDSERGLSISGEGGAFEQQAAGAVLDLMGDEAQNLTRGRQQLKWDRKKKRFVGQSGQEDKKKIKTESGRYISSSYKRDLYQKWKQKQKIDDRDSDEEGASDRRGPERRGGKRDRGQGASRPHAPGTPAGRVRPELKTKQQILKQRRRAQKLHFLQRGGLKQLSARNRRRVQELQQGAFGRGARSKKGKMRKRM
# The list shows a part of the results. For some assays here: Construct or isoform of the protein are uncertain.
# Assays:
# Assay in all cases: protein microarray (ProtoArray v5.0), streptavidin-Alexa Fluor 647
# Settings in all cases: 3'-biotin; 20 mM Tris (pH 7.5), 5 mM MgCl2, 100 mM KCl, 0.1% Tween-20, A/T-rich and random oligonucleotide blockers; temperature not stated; high values mean tight binding
# [1] = test system: Cyclin-dependent kinase-like 1 (human)
# [2] = test system: Cyclin-dependent kinase-like 3 (human)
# [3] = test system: Cystathionine beta-synthase (human)
# [4] = test system: Cytochrome b-c1 complex subunit 6, mitochondrial (human)
# [5] = test system: Cytoglobin (human)
# [6] = test system: Cytoplasmic dynein 1 heavy chain 1 (human)
# [7] = test system: Cytosolic non-specific dipeptidase (human)
# [8] = test system: DAZ-associated protein 2 (human)
# [9] = test system: DBNDD1 (human)
# [10] = test system: DBNDD2 (human)
# [11] = test system: DCN1-like protein 1 (human)
# [12] = test system: DCPS (human)
# [13] = test system: DCTN2 (human)
# [14] = test system: DCTN3 (human)
# [15] = test system: DCUN1D3 (human)
# [16] = molecular target: T1, DDX21 (UniProt Q9NR30)
# T1 sequence: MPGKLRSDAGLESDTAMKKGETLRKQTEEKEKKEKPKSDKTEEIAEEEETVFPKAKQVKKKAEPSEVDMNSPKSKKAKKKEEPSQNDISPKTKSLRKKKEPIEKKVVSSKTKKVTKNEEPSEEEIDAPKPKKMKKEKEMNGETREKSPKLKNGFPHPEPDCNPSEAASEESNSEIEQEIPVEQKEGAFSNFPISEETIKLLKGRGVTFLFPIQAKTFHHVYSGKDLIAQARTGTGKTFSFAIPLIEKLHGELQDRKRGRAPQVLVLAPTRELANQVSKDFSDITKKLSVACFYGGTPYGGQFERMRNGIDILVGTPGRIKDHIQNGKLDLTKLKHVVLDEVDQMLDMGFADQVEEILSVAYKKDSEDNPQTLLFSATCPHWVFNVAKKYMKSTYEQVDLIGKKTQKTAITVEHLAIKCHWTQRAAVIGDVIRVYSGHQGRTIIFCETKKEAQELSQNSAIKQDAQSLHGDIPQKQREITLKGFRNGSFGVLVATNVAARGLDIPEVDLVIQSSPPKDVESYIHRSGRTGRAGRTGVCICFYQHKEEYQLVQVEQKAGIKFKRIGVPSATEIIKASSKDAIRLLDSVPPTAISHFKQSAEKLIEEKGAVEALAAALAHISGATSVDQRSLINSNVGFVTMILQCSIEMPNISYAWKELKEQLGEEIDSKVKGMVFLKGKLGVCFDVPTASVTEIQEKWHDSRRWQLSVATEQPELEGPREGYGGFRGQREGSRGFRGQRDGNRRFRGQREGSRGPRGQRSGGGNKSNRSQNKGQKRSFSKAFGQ
# [17] = molecular target: DDX54 (UniProt Q8TDD1)
# [18] = molecular target: T2, DDX55 (UniProt Q8NHQ9)
# T2 sequence: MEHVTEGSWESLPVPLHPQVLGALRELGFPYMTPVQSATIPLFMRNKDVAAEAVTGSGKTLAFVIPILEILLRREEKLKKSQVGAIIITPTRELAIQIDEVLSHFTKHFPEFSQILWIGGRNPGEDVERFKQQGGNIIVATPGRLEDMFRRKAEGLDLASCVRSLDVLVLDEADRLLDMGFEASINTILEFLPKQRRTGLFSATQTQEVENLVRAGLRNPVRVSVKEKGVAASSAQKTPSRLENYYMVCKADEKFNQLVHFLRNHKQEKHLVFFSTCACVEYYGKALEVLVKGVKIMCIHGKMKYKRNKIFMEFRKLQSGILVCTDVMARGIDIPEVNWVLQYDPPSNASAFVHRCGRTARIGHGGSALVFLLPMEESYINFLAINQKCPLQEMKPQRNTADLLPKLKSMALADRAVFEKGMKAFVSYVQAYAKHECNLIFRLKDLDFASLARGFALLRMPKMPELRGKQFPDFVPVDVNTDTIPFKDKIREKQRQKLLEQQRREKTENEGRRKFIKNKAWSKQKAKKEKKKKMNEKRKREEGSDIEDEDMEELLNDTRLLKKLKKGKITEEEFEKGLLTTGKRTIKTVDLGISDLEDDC
# [19] = test system: DEFA6 (human)
# [20] = test system: DEFB119 (human)
sequence,measurement,setting,value
GGGGACAGGGGTATGGGGAGGGG [G4-3 biotinylated (CtG)],binding signal,[1],4.29 z-score
same,binding signal,[2],5.63 z-score
same,binding signal,[3],-0.342 z-score
same,binding signal,[4],-0.313 z-score
same,binding signal,[5],-0.334 z-score
same,binding signal,[6],-0.332 z-score
same,binding signal,[7],-0.333 z-score
same,binding signal,[8],-0.334 z-score
same,binding signal,[9],-0.332 z-score
same,binding signal,[10],-0.327 z-score
same,binding signal,[11],-0.325 z-score
same,binding signal,[12],-0.315 z-score
same,binding signal,[13],-0.331 z-score
same,binding signal,[14],-0.326 z-score
same,binding signal,[15],-0.342 z-score
same,binding signal,[16],4.37 z-score
same,binding signal,[17],4.65 z-score
same,binding signal,[18],4.24 z-score
same,binding signal,[19],-0.328 z-score
same,binding signal,[20],-0.313 z-score

# As a short view, some entries already given.
sequence,measurement,setting,value
GGGGACAGGGGTATGGGGAGGGG [G4-3 biotinylated (CtG)],binding signal,[16],4.37 z-score
same,binding signal,[17],4.65 z-score
